Test results published in article PMC6125951.
Results are given in words; binding and its absence hold for the method and conditions named. In cells and extracts the contact can be indirect. Some results given as binding are weak or reduced against the parent protein; the word gives no strength.

Amino acid sequences for entries named in this document (tags omitted).
UniProt P17844: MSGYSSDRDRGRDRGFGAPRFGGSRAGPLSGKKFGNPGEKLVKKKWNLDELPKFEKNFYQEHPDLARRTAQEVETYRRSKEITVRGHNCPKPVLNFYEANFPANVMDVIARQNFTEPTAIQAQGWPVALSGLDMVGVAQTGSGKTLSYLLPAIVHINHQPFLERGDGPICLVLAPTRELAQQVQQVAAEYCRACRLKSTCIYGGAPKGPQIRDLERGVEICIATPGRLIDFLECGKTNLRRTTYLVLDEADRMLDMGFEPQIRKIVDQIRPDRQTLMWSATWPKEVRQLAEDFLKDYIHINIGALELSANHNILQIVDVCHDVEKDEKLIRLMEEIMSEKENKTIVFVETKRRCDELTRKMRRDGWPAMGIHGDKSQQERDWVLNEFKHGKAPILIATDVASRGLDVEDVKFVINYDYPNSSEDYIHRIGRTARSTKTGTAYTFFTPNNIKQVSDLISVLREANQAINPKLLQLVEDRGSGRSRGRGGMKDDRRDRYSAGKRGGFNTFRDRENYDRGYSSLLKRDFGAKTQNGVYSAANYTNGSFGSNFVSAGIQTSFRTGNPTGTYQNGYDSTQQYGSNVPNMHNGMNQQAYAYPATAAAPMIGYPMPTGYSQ
UniProt P35222: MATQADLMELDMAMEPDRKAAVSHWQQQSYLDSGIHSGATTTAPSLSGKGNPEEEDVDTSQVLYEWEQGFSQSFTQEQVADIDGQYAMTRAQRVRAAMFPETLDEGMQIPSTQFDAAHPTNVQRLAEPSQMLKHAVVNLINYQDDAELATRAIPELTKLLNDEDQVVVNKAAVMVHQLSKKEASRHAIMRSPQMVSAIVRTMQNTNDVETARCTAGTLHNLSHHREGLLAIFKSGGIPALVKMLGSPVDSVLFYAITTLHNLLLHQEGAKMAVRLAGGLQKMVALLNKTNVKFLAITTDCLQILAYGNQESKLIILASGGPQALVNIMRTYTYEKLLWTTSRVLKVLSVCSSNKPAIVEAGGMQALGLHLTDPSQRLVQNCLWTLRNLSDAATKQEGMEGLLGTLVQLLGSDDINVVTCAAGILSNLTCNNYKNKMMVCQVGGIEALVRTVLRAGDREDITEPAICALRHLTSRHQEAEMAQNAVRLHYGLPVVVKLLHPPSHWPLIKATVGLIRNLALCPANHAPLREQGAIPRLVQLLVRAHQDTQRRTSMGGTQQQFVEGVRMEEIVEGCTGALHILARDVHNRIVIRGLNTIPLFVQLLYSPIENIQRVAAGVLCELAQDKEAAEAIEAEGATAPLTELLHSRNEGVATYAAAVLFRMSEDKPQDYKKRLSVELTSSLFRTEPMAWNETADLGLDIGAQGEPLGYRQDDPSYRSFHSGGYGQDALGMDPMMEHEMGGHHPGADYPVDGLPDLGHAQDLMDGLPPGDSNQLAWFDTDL

Target: DDX5 (human (endogenous in HCT116)) (UniProt P17844)
Test: co-IP; endogenous DDX5 and β-catenin in HCT116 cells; which protein was precipitated is not told in the text shown

binding: binds
Substance: β-catenin (from UniProt P35222 1-781)
